Binding data for two molecules are collected here from publication PMC7156037.

Chains of the proteins cited; added tags and fusions are not shown. Lines headed by an entry give the natural chain unless they say otherwise; changes in a name come on top.
UniProt Q9LEV0: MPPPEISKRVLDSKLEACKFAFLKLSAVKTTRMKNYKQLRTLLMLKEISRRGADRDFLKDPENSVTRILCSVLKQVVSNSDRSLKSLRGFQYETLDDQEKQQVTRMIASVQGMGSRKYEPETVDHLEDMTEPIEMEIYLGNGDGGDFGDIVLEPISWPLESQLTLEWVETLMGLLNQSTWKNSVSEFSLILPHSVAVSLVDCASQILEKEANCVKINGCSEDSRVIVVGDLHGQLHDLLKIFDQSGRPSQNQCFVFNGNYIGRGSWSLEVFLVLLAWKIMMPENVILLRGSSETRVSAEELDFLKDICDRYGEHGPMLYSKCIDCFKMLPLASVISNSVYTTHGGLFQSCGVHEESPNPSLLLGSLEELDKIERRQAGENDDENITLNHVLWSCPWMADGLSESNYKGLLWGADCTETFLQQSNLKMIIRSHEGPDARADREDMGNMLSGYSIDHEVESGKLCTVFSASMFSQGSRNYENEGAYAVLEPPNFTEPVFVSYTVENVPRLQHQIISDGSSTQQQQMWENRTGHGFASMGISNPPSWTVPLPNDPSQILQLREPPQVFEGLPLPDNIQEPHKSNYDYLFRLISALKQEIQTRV

The target in this assay is PP7-like (PP7L), FLAG-tagged (A. thaliana) (UniProt Q9LEV0). Briefly: co-IP; FLAG-tagged bait captured on M2 magnetic FLAG-beads from extract of 3-week-old seedlings co-expressing both tagged proteins; IP buffer 50mM Tris pH 7.6, 150mM NaCl, 5mM MgCl2, 0.1% Nonidet P-40, 10% glycerol, 0.5 mM DTT; 2 hour at 4°C; three washes; Western blot with anti-FLAG and anti-MYC; plants expressing only one tagged protein as negative controls. (In general: Immunoblotting shows a protein as a band on a membrane.)

Results are given in words; binding and its absence hold for the method and conditions named. In cells and extracts the contact can be indirect. Binding calls can cover weak binding; strength is not graded here. Sequences can lack the tags named with a protein.

B1: … OF … (MAIN), MYC-tagged (protein, UniProt Q9LMT7 1-478)
chain: MPVLYEQDKHVSSAILTGQERGVLRCQERTSLLHHWKLTKEQIALVEKAGFGWFRLVGSISLNNSLISALVERWRRETNTFHFPCGEMTITLDEVSLILGLAVDGKPVVGVKEKDEDPSQVCLRLLGKLPKGELSGNRVTAKWLKESFAECPKGATMKEIEYHTRAYLIYIVGSTIFATTDPSKISVDYLILFEDFEKAGEYAWGAAALAFLYRQIGNASQRSQSIIGGCLTLLQCWSYFHLNIDRPKRTTRQFPLALLWKGRQQSRSKNDLFKYRKALDDLDPSNVSWCPFEGDLDIVPQSFKDNLLLGRSRTKLIGPKVVEWHFPDRCMKQFGLCQVIPGEVPPRKNEKNHDEDLLEDMNTADEEWMRRRENIVENGGGNGDESEYMQWFNSITVPKLHRDTSLEADIMNVQAAILQFDEVASTLSLEDLHPEEREAIEEAVMSMSNALRVGDWYEASTTNKRKRREEQQQTDWSE
Consider B1, for which the binding entry is reported as “binds”.

B2: MAIN-LIKE 1 (MAIL1), MYC-tagged (protein, UniProt Q9SK32 1-509)
chain: MDIDVGPVDPSVLYEQDLHVSSAVWEGQERGLLRCQEHTSLLHQWKLTDEQINLVDKAGFGYFRKIGPMSLNNSLISALVERWRRETNTFHLPLGEMTITLDEVALVLGLEIDGDPIVGSKVGDEVAMDMCGRLLGKLPSAANKEVNCSRVKLNWLKRTFSECPEDASFDVVKCHTRAYLLYLIGSTIFATTDGDKVSVKYLPLFEDFDQAGRYAWGAAALACLYRALGNASLKSQSNICGCLTLLQCWSYFHLDIGRPEKSEACFPLALLWKGKGSRSKTDLSEYRRELDDLDPSKITWCPYERFENLIPPHIKAKLILGRSKTTLVCFEKIELHFPDRCLRQFGKRQPIPLKVKRRDRKNRRLDDLDTSMSLACEEWAERGDHIVDSPGGGNVVDDGAYMEWYARISITKLYREAFLESQVMNMIACMREFEEAASGIALERLSPAEREVMESVKDTFANSLTFGGWQEVAVNSGYGKRRRRNEHTPTPNNGGGNDISSLLLQKEDS
In the case of B2, the binding result is “binds”.
